Construct, isoform or probe ends are uncertain for at least one entry.
Target: RAD52 (Homo sapiens) (UniProt P43351)
Assay: binding assay
Conditions: FRET; 1 nM dsDNA with 10 nM RAD52, dsDNA bent upon binding; 30 mM Tris-acetate pH 7.5, 25 C; purified recombinant protein; protein details: 6xHis; label: Cy3 and Cy5

The chains behind the UniProt entries cited, without tags or fusion partners. Where a name states a change or a piece, a line headed by the entry shows the natural chain unless it says otherwise.
UniProt P43351: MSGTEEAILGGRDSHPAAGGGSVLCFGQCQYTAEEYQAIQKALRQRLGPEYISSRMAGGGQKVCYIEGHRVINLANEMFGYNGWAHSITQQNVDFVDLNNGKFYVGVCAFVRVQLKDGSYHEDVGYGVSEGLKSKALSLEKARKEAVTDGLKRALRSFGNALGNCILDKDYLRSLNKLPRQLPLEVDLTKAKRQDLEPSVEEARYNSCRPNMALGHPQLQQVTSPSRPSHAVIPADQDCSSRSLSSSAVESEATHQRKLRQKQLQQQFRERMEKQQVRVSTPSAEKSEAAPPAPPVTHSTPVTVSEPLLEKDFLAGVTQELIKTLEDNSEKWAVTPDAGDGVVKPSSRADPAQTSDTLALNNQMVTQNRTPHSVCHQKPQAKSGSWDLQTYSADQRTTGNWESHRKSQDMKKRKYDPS

Does “CGTTGCGGATGGCTTAGAGCTTAATTGC / GCAATTAAGCTCAAGCCATCCGCAACG [Cy3-Oligo28-Cy5 / Oligo28-REV duplex]” bind?
Result: binds
